Experimental findings from paper PMC8556396, “Statin-mediated disruption of Rho GTPase prenylation and activity inhibits respiratory syncytial virus infection” (Communications Biology, 2021) are described below.

“And” between values parts separate entries of the source, which are not always exact repeats. Equal values may be shown once. Where a name gives a salt, the structure may show the parent alone.

In one experiment the test system is GTP-bound RhoA. The following applies: atorvastatin 3.5 µM, RSV A2-infected HEp-2 lysates, relative to DMSO.
The test system of a further experiment is GTP-bound Rac1. As to conditions: atorvastatin 3.5 µM, RSV A2-infected HEp-2 lysates, relative to DMSO.
Another experiment relates to RSV A2. Nature of the experiment: Immunofluorescence staining and microscopy of RSV F and N.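 For RSV F intensity (a.u.): fluorescence normalized to total nuclear count.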 The following applies: for RSV F intensity (a.u.): simvastatin 1.5 uM.

Regarding `CC(C)c1c(C(=O)Nc2ccccc2)c(-c2ccccc2)c(-c2ccc(F)cc2)n1CC[C@@H](O)C[C@@H](O)CC(=O)O` [Atorvastatin, Atorvastatin calcium salt trihydrate], in the experiment on GTP-bound RhoA, the “GTP-bound RhoA level” value was “decrease in GTP-bound RhoA and Rac1 levels”. The “GTP-bound Rac1 level” value with GTP-bound Rac1 was “decrease in GTP-bound RhoA and Rac1 levels”. Moreover, the “RSV F intensity (a.u.)” value in the experiment with RSV A2 (Fig 5B, statin alone: atorvastatin 3.5 uM) was 0.4011 a.u. and 0.2378 a.u. and 0.2898 a.u. and 0.2493 a.u; with RSV A2 (Fig 7B, atorvastatin 3.5 uM, EHT 1864 20 uM, CN04 1 uM, CN04 1 uM + Ato 3.5 uM) it was 0.4595 a.u. and 0.2913 a.u. and 0.3801 a.u. and 0.2605 a.u. Also, the “F protein surface expression by confocal microscopy” value with RSV A2 (RSV A2 MOI 0.5, HEp-2, atorvastatin 3.5 µM, MBCD 1.0 mM, EHT 1864 20.0 µM) was “perturbed surface expression of the F protein”.
